This note sets out measurements from patent publication US20180037644A1.

The chains behind the UniProt entries cited, without tags or fusion partners. Where a name states a change or a piece, a line headed by the entry shows the natural chain unless it says otherwise.
UniProt O95760: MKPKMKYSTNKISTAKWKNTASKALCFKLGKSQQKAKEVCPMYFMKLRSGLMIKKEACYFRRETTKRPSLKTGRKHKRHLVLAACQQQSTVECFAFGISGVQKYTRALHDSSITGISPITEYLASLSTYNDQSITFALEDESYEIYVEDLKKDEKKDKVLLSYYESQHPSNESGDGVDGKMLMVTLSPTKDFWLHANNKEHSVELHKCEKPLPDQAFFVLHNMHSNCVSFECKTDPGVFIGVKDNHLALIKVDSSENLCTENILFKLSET

Results are given in words; binding and its absence hold for the method and conditions named. Some binding calls cover weakened binding; strength is not graded here.

In assay [1] the target is human IL-33 WT (R&D) (human) (UniProt O95760). The assay can be described thus: Octet, captured on anti-Fc tip; IL-33 premixed with IL33-271 (competitor).
For assay [2] the target is unchanged. The assay is described as follows: Octet, captured on anti-Fc tip; IL-33 alone. A general note: BLI is a label-free optical method that tracks binding on a fibre tip over time.
Assay [3] concerns the target human IL-33 (mm2) (human) (UniProt O95760). The assay can be described thus: SPR (Biacore), human IL-33 (mm2) immobilized on the chip, titration series of rat 7E8 Fab in solution; panel title 'hu IL33 Mu2'. For orientation: In SPR one partner is held on a chip, and binding of the other changes the refractive index at the surface.

B1: human ST2-hIgG2Fc (Fc fusion)
chain: KFSKQSWGLENEALIVRCPRQGKPSYTVDWYYSQTNKSIPTQERNRVFASGQLLKFLPAAVADSGIYTCIVRSPTFNRTGYANVTIYKKQSDCNVPDYLMYSTVSGSEKNSKIYCPTIDLYNWTAPLEWFKNCQALQGSRYRAHKSFLVIDNVMTEDAGDYTCKFIHNENGANYSVTATRSFTVKDEQGFSLFPVIGAPAQNEIKEVEIGKNANLTCSACFGKGTQFLAAVLWQLNGTKITDFGEPRIQQEEGQNQSFSNGLACLDMVLRIADVKEEDLLLQYDCLALNLHGLRRHTVRLSRKNPSKECFVECPPCPAPPVAGPSVFLFPPKPKDTLMISRTPEVTCVVVDVSHEDPEVQFNWYVDGMEVHNAKTKPREEQFNSTFRVVSVLTVVHQDWLNGKEYKCKVSNKGLPAPIEKTISKTKGQPREPQVYTLPPSREEMTKNQVSLTCLVKGFYPSDIAVEWESNGQPENNYKTTPPMLDSDGSFFLYSKLTVDKSRWQQGNVFSCSVMHEALHNHYTQKSLSLSPGK
For B1, the binding result in assay [1] and in assay [2] was “binds” each time.

B2: rat 7E8 Fab (Fab, V domains shown)
VH: EVQLVETGGGLVQPGRSLKLSCKTSGFTFSSYWMYWIRQAPGKGLEWVSSITPNGGNTYYPDSVKGRFTISRDNAENTIYLQMSSLRSEDTATYFCAKGHYYYTSYSLGYWGQGSLVTVSS
VL: EIQMTQSPSVLSASVGDRVTLSCKASQNINKHLDWYQQKLGEAPKLLIYFTNNLQTGIPSRFSGSGSGTDCTLTINSLQPGDVATYFCFQYNNGWTFGGGTKLELD
Regarding B2, the binding entry in assay [3] is on record as “binds”.
